This note sets out measurements from PubChem BioAssay AID248 (DTP/NCI, 2004).

The test deals with L1210 leukemia ip in BDF1 mice, survival T/C. Description: NCI In Vivo Anticancer Drug Screen. Data for tumor model L1210 Leukemia (intraperitoneal) in B6D2F1 (BDF1) mice. Particulars: T/C endpoint: mean survival time, higher T/C = longer survival.
The mark [1] stands for this setting: dose: 100.0 mg/kg/injection, schedule: Q01DX009 (ip), vehicle: saline with Tween-80.
Where [2] appears, read: dose: 200.0 mg/kg/injection, schedule: Q01DX009 (ip), vehicle: saline with Tween-80.
Setting [3] is: dose: 400.0 mg/kg/injection, schedule: Q01DX009 (ip), vehicle: saline with Tween-80.
Where [4] appears, read: dose: 400.0 mg/kg/injection, schedule: Q01DX001 (ip), vehicle: saline.

The list shows only some results of the screen, not a fair sample: it is rich in T/C values a quarter to a half above the control, in often repeated tests (any T/C) and in doses without a T/C. Other doses and runs of a compound stand elsewhere. T/C is the treated group as % of the vehicle group. Some entries give survivors of the animals treated and no T/C: the source holds a T/C of zero for them, seemingly a mark for toxic or unscored doses. Some doses without a T/C left all or most animals alive at the check, yet need not have been tolerated: the source hardly ever lists a survival T/C far under the control, and the zero likely stands for such cases as well. Counts of survivors are from the toxicity check (mostly the fifth day) where no day follows; animals may have died later. Schedules are NCI's codes, read here as Q, the interval in days (D) or hours (H), X, the number of doses. Some entries were tested several times; their values stand side by side, smallest first. Where survival is the endpoint, this PubChem deposit counts one and a half times the control or more as active, and values a quarter to a half above the control carry no call in these data; other NCI protocols may use other cut-offs. Some T/C values are followed by the survivors on the day toxicity was checked, most often the fifth; without a count, all were alive then.

In the case of `CC1NCCNCCNCCNC(C)c2cccc1n2` (configuration not stated), the survivor count is, setting by setting: (dose: 100.0 mg/kg/injection, schedule: Q04DX002 (ip), vehicle: saline) 1 of 3; (dose: 200.0 mg/kg/injection, schedule: Q04DX002 (ip), vehicle: saline) 0 of 3; (dose: 400.0 mg/kg/injection, schedule: Q04DX002 (ip), vehicle: saline) 0 of 3.

Consider `O=C1NNC(=O)NN1`, for which the survivor count by setting is: (dose: 200.0 mg/kg/injection, schedule: Q04DX003 (ip), vehicle: Klucel (hydroxypropylcellulose) (HPC)) 1 of 6; (dose: 400.0 mg/kg/injection, schedule: Q04DX003 (ip), vehicle: Klucel (hydroxypropylcellulose) (HPC)) 0 of 6.

For `O=C(O)CNCCN1CC(=O)N(c2ccccc2)C1=S`, the survivor count (dose: 200.0 mg/kg/injection, schedule: Q04DX002 (ip), vehicle: carboxymethylcellulose (CMC)) is given as 6 of 6 and the survivor count (dose: 400.0 mg/kg/injection, schedule: Q01DX009 (ip), vehicle: carboxymethylcellulose (CMC)) is 6 of 6.

In the case of `O=C1OC(=O)c2c3c(c4c(c21)CCC4)CCC3`, the survivor count (dose: 400.0 mg/kg/injection, schedule: Q04DX003 (ip), vehicle: saline) is given as 1 of 6.

On to `O=C(Nc1ccc(OCc2ccccc2)cc1)c1ccc([N+](=O)[O-])s1`, for which the survivor count is 4 of 4 (dose: 50.0 mg/kg/injection, schedule: Q01DX005 (ip), vehicle: water); 4 of 4 (dose: 100.0 mg/kg/injection, schedule: Q01DX005 (ip), vehicle: water); 3 of 4 (dose: 200.0 mg/kg/injection, schedule: Q01DX005 (ip), vehicle: water).

`C=C(C)CSC(=S)NNc1ccccc1`: the survivor count (dose: 335.0 mg/kg/injection, schedule: Q01DX009 (ip), vehicle: saline with Tween-80) is listed as 3 of 6.

Turning to `COc1c(Cl)c(Cl)c(Cl)c(Cl)c1Cl`, the survivor count (dose: 400.0 mg/kg/injection, schedule: Q01DX009 (ip), vehicle: saline) was 6 of 6.

For the compound `Oc1ccc(/C=N/NC(=S)NN2CCOCC2)nc1`, the survivor count runs as follows: (dose: 50.0 mg/kg/injection, schedule: Q01DX009 (ip), vehicle: saline with Tween-80) 1 of 3; (dose: 75.0 mg/kg/injection, schedule: Q04DX002 (ip), vehicle: saline with Tween-80) 3 of 3; under setting [1], 1 of 3.

Consider `COc1ccc(C)cc1NC(=S)NC(=O)c1ccc(Cl)cc1Cl`, for which the T/C was 95, 96, 97 % of control under setting [1] and 96 % of control [5 of 6 alive] under setting [2]. For the same compound, the survivor count is 3 of 3 under setting [1]; 3 of 3 and 6 of 6 under setting [2]; 5 of 6 under setting [3]; 6 of 6 (dose: 400.0 mg/kg/injection, schedule: Q04DX003 (ip), vehicle: saline with Tween-80).

`O=C(O)c1cccc(Br)c1[N+](=O)[O-]`: the survivor count under setting [4] is listed as 1 of 4.

As for `O=C1NC(=O)C(F)C(O)N1` (configuration not stated), the survivor count is listed as 3 of 6 (dose: 100.0 mg/kg/injection, schedule: Q01DX001 (ip), vehicle: saline); 0 of 6 (dose: 200.0 mg/kg/injection, schedule: Q01DX001 (ip), vehicle: saline); 0 of 6 under setting [4].

Consider `CC(C)(C)NC1CCCC1Cl` (configuration not stated), for which the survivor count under setting [3] is 0 of 6.

Take `Cc1cccc(N2C(=O)C3C(C2=O)C2(Cl)C(Cl)=C(Cl)C3(Cl)C2(Cl)Cl)c1C` (configuration not stated): the survivor count is 3 of 6 (dose: 100.0 mg/kg/injection, schedule: Q01DX009 (ip), vehicle: Klucel (hydroxypropylcellulose) (HPC)); 0 of 6 (dose: 200.0 mg/kg/injection, schedule: Q01DX009 (ip), vehicle: Klucel (hydroxypropylcellulose) (HPC)); 0 of 6 (dose: 400.0 mg/kg/injection, schedule: Q01DX009 (ip), vehicle: Klucel (hydroxypropylcellulose) (HPC)).

In the case of `CNC(COC(=O)c1ccc(N)cc1)C1CCCCC1` (configuration not stated), the survivor count runs as follows: (dose: 150.0 mg/kg/injection, schedule: Q01DX001 (ip), vehicle: saline) 2 of 6; (dose: 300.0 mg/kg/injection, schedule: Q01DX001 (ip), vehicle: saline) 0 of 6.
